Source: publication PMC7244511, “Phosphoproteomics identifies dual-site phosphorylation in an extended basophilic motif regulating FILIP1-mediated degradation of filamin-C” (Communications Biology, 2020)
Results are given in words; binding and its absence hold for the method and conditions named. Binding seen in cells or lysates may run through a third protein. These calls come from enrichment with a bait or labelling near it, and not all partners need be listed.

Amino acid sequences for entries named in this document (tags omitted). A change or cut given only in a name is not applied to a line headed by its entry. Chains listed by the source or under a name are the forms on record and can include a tag or linker.
UniProt Q14315: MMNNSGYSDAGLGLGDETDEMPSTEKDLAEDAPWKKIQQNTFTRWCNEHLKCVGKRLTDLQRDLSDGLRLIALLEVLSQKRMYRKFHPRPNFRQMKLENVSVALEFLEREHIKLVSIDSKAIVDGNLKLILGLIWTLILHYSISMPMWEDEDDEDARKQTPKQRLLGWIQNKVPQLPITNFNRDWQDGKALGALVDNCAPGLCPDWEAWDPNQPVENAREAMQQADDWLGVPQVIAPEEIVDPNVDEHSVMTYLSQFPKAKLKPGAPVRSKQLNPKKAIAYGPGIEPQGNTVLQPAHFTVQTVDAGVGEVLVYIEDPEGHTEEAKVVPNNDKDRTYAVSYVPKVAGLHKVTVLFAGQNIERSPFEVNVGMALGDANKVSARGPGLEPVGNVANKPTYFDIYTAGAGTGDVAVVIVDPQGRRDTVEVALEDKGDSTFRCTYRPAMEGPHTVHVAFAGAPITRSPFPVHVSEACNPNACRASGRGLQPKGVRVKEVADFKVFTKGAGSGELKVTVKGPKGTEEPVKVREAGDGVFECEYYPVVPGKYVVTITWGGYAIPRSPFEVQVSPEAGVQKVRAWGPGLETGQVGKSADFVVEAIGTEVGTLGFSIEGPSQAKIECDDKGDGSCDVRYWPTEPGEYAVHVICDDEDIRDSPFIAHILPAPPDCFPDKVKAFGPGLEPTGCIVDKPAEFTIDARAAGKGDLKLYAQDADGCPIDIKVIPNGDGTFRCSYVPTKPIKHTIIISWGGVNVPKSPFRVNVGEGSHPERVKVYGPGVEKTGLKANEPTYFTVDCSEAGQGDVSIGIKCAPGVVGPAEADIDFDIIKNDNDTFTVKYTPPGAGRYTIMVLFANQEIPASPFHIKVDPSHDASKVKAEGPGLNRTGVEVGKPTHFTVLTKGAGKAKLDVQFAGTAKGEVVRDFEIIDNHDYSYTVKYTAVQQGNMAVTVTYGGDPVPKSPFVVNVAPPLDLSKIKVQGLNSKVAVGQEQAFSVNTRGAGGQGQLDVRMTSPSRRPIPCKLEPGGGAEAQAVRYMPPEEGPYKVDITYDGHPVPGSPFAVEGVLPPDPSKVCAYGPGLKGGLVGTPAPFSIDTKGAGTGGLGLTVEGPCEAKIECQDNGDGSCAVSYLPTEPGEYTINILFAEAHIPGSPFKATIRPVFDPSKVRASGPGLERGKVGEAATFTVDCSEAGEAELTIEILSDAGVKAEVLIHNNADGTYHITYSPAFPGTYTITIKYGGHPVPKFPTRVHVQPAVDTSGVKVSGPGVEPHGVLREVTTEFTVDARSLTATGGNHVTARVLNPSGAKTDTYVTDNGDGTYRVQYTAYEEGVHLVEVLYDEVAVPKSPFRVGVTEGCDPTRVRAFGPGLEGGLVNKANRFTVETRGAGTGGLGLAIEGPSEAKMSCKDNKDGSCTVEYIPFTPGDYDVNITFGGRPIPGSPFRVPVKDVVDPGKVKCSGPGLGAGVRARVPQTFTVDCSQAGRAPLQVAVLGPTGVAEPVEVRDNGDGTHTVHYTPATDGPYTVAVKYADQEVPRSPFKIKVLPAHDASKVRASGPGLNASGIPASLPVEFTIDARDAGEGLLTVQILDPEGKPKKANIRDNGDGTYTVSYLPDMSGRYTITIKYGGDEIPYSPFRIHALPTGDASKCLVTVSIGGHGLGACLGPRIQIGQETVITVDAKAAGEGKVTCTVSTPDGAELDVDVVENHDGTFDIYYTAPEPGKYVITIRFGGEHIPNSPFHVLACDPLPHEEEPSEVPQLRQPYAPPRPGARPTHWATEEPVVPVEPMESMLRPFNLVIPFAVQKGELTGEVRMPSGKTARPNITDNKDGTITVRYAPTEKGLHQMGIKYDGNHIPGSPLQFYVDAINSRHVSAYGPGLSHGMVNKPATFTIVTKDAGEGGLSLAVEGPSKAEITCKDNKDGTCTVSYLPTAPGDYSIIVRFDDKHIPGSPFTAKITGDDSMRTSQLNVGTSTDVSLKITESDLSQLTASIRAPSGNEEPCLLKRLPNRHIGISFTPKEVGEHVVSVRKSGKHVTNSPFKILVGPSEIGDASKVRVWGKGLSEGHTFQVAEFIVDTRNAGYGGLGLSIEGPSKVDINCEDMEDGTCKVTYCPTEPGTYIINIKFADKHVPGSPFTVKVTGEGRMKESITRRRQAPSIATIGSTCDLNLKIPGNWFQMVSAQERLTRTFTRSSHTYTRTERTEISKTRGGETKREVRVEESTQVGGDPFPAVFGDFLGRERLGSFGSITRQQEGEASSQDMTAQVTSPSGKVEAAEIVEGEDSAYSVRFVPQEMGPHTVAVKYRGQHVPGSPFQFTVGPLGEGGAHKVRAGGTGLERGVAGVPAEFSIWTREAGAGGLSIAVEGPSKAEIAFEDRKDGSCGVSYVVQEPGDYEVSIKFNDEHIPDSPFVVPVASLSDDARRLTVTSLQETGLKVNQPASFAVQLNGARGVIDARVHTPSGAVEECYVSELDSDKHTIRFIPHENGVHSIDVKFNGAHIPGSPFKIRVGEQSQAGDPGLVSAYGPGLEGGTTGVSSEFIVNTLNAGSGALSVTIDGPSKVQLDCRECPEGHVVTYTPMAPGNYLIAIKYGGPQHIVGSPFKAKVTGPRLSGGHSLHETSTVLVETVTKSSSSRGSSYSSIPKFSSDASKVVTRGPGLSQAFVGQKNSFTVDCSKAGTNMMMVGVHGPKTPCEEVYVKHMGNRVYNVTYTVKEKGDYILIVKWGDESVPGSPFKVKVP
Xin actin-binding repeat-containing protein 1 (Xirp1) (O70373, form named): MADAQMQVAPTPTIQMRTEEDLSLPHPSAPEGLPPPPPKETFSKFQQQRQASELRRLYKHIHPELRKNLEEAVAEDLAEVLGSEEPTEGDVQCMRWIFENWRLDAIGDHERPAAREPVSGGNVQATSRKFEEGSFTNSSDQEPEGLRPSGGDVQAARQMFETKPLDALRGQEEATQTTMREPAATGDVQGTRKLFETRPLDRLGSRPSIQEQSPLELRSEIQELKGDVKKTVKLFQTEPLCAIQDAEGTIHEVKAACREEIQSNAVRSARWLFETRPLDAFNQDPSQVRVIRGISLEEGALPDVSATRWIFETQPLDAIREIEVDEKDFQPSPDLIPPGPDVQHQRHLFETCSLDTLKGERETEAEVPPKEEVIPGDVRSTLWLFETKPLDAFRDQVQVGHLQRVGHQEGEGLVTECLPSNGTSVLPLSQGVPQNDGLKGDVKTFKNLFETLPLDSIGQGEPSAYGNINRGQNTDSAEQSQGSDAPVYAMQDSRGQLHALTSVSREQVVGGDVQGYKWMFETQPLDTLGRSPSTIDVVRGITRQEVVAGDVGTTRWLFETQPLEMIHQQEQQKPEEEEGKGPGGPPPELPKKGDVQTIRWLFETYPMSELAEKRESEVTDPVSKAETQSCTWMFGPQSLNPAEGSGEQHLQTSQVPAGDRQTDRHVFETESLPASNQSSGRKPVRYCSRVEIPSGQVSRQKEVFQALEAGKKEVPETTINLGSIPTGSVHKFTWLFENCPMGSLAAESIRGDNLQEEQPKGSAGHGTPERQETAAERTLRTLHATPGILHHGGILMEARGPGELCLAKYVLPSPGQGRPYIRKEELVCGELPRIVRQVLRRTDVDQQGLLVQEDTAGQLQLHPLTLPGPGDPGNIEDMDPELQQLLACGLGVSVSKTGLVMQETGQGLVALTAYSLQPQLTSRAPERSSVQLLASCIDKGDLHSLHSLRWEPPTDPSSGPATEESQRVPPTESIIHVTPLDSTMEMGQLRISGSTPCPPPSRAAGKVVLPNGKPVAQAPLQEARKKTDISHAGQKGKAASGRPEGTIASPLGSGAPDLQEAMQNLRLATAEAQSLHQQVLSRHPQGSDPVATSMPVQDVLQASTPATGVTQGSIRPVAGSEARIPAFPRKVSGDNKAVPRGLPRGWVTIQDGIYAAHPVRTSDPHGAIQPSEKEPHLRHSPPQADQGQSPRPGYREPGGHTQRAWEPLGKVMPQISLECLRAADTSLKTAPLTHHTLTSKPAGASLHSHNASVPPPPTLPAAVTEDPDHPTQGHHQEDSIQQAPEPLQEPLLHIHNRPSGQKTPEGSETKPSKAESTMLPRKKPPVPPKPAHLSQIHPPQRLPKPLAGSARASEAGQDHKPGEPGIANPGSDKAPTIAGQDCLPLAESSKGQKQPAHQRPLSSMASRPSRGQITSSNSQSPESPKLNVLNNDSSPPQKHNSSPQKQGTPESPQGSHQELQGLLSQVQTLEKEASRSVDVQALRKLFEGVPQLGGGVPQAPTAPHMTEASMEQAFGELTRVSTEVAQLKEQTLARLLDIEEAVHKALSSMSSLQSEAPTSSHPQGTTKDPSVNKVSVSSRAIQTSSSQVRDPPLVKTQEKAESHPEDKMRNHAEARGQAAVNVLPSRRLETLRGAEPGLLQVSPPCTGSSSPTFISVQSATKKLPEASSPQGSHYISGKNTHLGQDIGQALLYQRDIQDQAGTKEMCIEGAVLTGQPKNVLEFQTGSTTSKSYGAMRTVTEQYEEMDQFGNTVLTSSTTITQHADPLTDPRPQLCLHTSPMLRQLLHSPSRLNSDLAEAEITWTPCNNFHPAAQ
UniProt Q99JI1: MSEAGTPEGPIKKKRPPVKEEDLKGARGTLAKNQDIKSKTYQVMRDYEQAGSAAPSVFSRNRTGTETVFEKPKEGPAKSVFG
UniProt Q6P5H2: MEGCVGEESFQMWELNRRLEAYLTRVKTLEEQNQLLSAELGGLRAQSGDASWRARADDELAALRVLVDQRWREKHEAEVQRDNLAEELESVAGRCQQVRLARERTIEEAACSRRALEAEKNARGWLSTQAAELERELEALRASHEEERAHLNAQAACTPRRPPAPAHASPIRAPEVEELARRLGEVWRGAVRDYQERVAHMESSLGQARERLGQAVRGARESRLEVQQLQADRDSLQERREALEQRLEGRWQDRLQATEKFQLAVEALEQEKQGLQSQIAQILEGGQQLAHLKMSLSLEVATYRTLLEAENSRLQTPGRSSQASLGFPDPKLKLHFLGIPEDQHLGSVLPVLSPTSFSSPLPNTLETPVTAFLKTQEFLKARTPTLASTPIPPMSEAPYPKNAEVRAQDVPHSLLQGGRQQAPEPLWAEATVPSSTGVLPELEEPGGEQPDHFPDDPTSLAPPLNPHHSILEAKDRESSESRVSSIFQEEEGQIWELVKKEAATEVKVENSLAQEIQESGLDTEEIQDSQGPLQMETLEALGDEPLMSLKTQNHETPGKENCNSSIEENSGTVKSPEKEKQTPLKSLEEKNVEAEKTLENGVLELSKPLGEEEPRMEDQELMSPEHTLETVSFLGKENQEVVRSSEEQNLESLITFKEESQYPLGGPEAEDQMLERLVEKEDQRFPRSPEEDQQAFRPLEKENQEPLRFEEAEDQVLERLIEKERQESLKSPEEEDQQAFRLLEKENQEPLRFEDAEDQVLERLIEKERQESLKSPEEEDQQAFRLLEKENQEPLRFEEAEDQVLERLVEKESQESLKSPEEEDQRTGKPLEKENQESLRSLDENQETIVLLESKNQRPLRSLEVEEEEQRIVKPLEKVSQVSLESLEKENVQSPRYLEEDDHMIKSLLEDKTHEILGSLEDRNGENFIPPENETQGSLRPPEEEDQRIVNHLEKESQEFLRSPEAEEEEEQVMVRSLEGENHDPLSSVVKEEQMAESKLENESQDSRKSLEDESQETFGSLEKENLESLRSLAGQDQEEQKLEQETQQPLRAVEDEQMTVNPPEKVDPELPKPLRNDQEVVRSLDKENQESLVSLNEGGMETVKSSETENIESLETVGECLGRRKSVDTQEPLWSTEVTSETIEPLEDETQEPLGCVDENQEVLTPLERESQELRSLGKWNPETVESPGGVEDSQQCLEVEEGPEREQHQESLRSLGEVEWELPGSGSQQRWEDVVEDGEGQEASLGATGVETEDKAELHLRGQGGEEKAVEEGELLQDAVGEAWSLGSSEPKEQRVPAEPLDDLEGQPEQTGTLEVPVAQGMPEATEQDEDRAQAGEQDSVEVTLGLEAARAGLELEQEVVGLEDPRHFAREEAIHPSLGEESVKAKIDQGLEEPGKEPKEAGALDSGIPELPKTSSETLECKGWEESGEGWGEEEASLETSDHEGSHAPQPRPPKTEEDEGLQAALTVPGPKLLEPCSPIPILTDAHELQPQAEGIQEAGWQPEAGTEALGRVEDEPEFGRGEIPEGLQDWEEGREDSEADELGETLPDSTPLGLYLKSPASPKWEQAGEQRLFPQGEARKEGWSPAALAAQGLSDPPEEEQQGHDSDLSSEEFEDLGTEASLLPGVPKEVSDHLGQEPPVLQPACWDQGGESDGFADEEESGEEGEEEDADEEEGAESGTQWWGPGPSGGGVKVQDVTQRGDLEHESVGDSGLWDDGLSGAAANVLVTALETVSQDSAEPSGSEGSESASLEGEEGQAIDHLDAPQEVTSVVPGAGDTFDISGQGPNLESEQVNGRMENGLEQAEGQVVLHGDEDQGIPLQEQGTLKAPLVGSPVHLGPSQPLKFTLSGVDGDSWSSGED

What follows are molecules tested against BirA*hFLNc d18–21 (human) (UniProt Q14315) (assay: proximity labelling; BioID with SILAC in contracting C2 myotubes expressing BirA* or BirA*hFLNc d18–21; 50 μM biotin for 24 h; biotinylated proteins enriched on streptavidin Dynabeads, LC-MS; controls BirA* + biotin and bait without biotin).

| binding | Molecule |
| --- | --- |
| binds | Dst (from UniProt Q91ZU6 1-7393) |
| binds | Xin actin-binding repeat-containing protein 1 (Xirp1) (from UniProt O70373 1-1813) |
| binds | Mustn1 (from UniProt Q99JI1 1-82) |
| binds | Svil (from UniProt Q8K4L3 1-2170) |
| binds | Nes (from UniProt Q6P5H2 1-1864) |
| binds | endogenous filamin A-interacting protein 1 (FILIP1) (protein, UniProt Q9CS72 1-1214) MRSRNQGGESSSNGHVSCPKPSIISSDGGKGPSEDAKKNKANRKGEDDVMASGTVKRHLKPSGESEKKTKKPLELSKEDLIQLLSIMEGELQAREDVIHMLKTEKTKPEVLEAHYGSAEPEKVLRVLHRDAILAQEKSIGEDVYEKPISELDRLEEKQKETYRRMLEQLLLAEKCHRRTVYELENEKHKHTDYMNKSDDFTNLLEQERERLKKLLEQEKAYQARKEKENAKRLNKLRDELVKLKSFALMLVDERQMHIEQLGLQSQKVQDLTQKLREEEEKLKAITYKSKEDRQKLLKLEVDFEHKASRFSQEHEEMNAKLANQESHNRQLRLKLVGLSQRIEELEETNKSLQKAEEELQELRDKIAKGECGNSSLMAEVESLRKRVLEMEGKDEEITKTEAQCRELKKKLQEEEHHSKELRLEVEKLQKRMSELEKLEEAFSRSKSECTQLHLNLEKEKNLTKDLLNELEVVKSRVKELECSESRLEKVELSLKDDLTKLKSFTVMLVDERKNMMEKIKQEERKVDGLNKNFKVEQGKVMDVTEKLIEESKKLLKLKSEMEEKVYSLTKERDELMGKLRSEEERSCELSCSVDLLKKRLDGIEEVEREINRGRLCKGSEFTCPEDNKIRELTLEIERLKKRLQQLEVVEGDLMKTEDEYDQLEQKFRTEQDKANFLSQQLEEIKHQMAKNKAIEKGEAVSQEAELRHRFRMEEAKSRDLQAEVQALKEKIHELMNKEDQLSQLQVDYSVLQQRFMEEETKNKNMGREVLNLTKELELSKRYSRALRPSGNGRRMVDVPVASTGVQTEAVCGDAAEEETPAVFIRKSFQEENHIMSNLRQVGLKKPMERSSVLDRYPPAANELTMRKSWIPWMRKRENGPSAPQEKGPRPNQGTGHPGELVLAPKQGQPLHIRVTPDHENSTATLEITSPTSEEFFSSTTVIPTLGNQKPRITIIPSPNVMSQKPKSADPTLGPERAMSPVTITTISREKSPEGGRGAFADRPASPIQIMTVSTSAAPPEIAVSPDSQEVPMGRTILKVTPEKQTVPTPMRKYNANANIITTEDNKIHIHLGSQFKRSPGPAAAEGVSPVITVRPVNVTAEKEVSTGTVLRSPRNHLSSRPGANKVTSTITITPVTTSSTRGTQSVSGQDGSSQRPTPTRIPMSKGMKAGKPVVAAPGAGNLTKFQPRAETQSMKIELKKSAASSTASLGGGKG |
| binds | Unc45b (protein, UniProt Q8CGY6 1-931) MAEAEAAQLKEEGNRHFQLQDYKAATKSYSQALKLTKDKALLATLYRNRAACGLKMESYAQAASDASRAIDINSADIKALYRRCQALEHLGKLDQAFKDVQRCATLEPRNQNFQETLRRLNTSIQEQLRVQFSTDSRVQTMFEILLNENSEADKREKAANNLIVLGREEAGAERIFQSNGVALLLQLMNTQRPELLLAAVRTLSGMCSGHRARATAILHAVRIDRICSLMALENEEMSLAVCNLLQAIIDSLSGEDKREHRGKEEALVLDTKKDLKQITSHLLDMLVSKKVSGQGRDQALNLLNKNVPRKDLSIHDNSRTIYVVDNGLRKILKVVGQVPDLPSCLPLTDNTRMLASILINKLYDDLRCDPERDHFRKICEEYITSKFDPQDMDKNVNAIQTVSGILQGPFDLGNQLLGMKGVMEMMVALCGSEREADQLVAVEALIHASTKLSRATFIITNGVTLLKQIYKTTKNEKIKIRTLVGLCKLGSAGGSDYGLRQFAEGSTEKLAKQCRKWLCNTAIDTRTRRWAVEGLAYLTLDADVKDDFVQDIPALQAMFELAKARTSDKTILYSVANTLVNCTNSYDVKEVVPELVQLAKFSKQHVPEEHPKDKKDFVDLRVKRLLKAGVISALACMVKADSAILTDQTKELLARVFLALCDNPKDRGTIVAQGGGKALIPLALEGTDVGKVKAAHGLAKIAAVSNPDIAFPGERVYEVVRPLVSLLDTQRDGLQNYEALLGLTNLSGRSDKLRQKIFKEKALPDIENYMFENHDQLRQAATECMCNMVLNKEVQERFLADGNDRLKLVVLLCGEDDHKLQNAAAGALAMLTAAHKKLCLKMTEVTTQWLEILQRLCLHDQLSVQHRGLVIAHNLLSADAELARKLVESELLEILTVVGKQEPDEKRAAVVQTARECLIKCMDYGFIKPVS |
| binds | Cnn3 (protein, UniProt Q9DAW9 1-330) MTHFNKGPSYGLSAEVKNKIASKYDQQAEEDLRNWIEEVTGLGIGTNFQLGLKDGIILCELINKLQPGSVKKVNESSLNWPQLENIGNFIKAIQAYGMKPHDIFEANDLFENGNMTQVQTTLVALAGLAKTKGFHTTIDIGVKYAEKQTRRFDEGKLKAGQSVIGLQMGTNKCASQAGMTAYGTRRHLYDPKMQTDKPFDQTTISLQMGTNKGASQAGMLAPGTRRDIYDQKLTLQPVDNSTISLQMGTNKVASQKGMSVYGLGRQVYDPKYCAAPTEPVIHNGSQGTGTNGSEISDSDYQAEYPDEYHGEYPDDYPREYQYGDDQGIDY |
| binds | Pdlim3 (protein, UniProt O70209 1-316) MPQNVVLPGPAPWGFRLSGGIDFNQPLVITRITPGSKAAAANLCPGDVILAIDGFGTESMTHADAQDRIKAASYQLCLKIDRAETRLWSPQVSEDGKAHPFKINLEAEPQEFKPIGTAHNRRAQPFVAAANIDDKRQVVSASYNSPIGLYSTSNIQDALHGQLRGLIPGSLQNEPTASVPPQSDVYRMLHDNRDDPAAPRQSGSFRVLQDLVNDGPDDRPAGTRSVRAPVTKVHGGAGSAQRMPLCDKCGSGIVGAVVKARDKYRHPECFVCADCNLNLKQKGYFFVEGELYCETHARARTRPPEGYDTVTLYPKA |

Further lines, the molecule ahead of its results:

| Molecule | binding |
| --- | --- |
| LIM domain binding 3 (Ldb3/ZASP/cypher) (from UniProt Q9JKS4 1-723) | binds |
| endogenous mouse filamin-C (mFLNc) (from UniProt Q8VHX6 1-2726) | binds |
| Bcl-2-associated athanogene 3 (Bag3) (from UniProt Q9JLV1 1-577) | binds |
| Macf1 (from UniProt Q9QXZ0 1-7354) | binds |
| Cttn (from UniProt Q60598 1-546) | binds |
| Neb (from UniProt E9Q1W3 1-7152) | binds |
| Nrap (from UniProt Q80XB4 1-1728) | binds |
| Ccdc141 (from UniProt E9Q8Q6 1-1531) | binds |
| Sorbs1 (protein, UniProt Q62417 1-1290) MSSECDVGSSKAVVNGLASGNHGPDKDMDPTKICTGKGTVTLRASSSYRGTPSSSPVSPQESPKHESKSGLEPEDPSADEWKLSSSADTNGNAQPSPLAAKGYRSVHPSLSADKPQGSPLLNEVSSSHIETDSQDFPPTSRPSSAYPSTTIVNPTIVLLQHNRDPASERRAGEQDPVPTPAELTSPGRASERRAKDASRRVVRSAQDLSDVSTDEVGIPLRNTERSKDWYKTMFKQIHKLNRDDDSDVHSPRYSFSDDTKSPLSVPRSKSEMNYIEGEKVVKRSATLPLPARSSSLKSSPERNDWEPLDKKVDTRKYRAEPKSIYEYQPGKSSVLTNEKMSRDISPEEIDLKNEPWYKFFSELEFGRPTNLEKDLSFCQAELEADLEKVETVNKSPSANSPQSSAVSPTPDITSEPPGYIYSSNFHAVKRESDGTPGGLASLENERQIYKSVLEGGDIPLQGLSGLKRPSSSASTKVDRKGGNAHMISSSSVHSRTFHTSNALGPGCKHKKPLSAAKACISEILPSKFKPRLSAPSALLQEQKSVLLPSEKAQSCENLCVSLNDSKRGLPLRVGGSIENLLMRSRRDYDSKSSSTMSLQEYGTSSRRPCPLSRKAGLHFSMFYRDMHQINRAGLSLGSISSSSVRDLASHFERSSLTLARGELGASQEGSEHIPKHTVSSRITAFEQLIQRSRSMPSLDFSGRLSKSPTPVLSRSGLTSARSAESLLESTKLRPREMDGMDSGGVYASPTCSNMADHALSFRSLVPSEPLSICSDELDHCSNVSNDSREGSGGSVHGDFPKHRLNKCKGTCPASYTRFTTIRKHEQQSSRQSDWRSDSRGDKNSLLRNIHLMSPLPFRLKKPLQQHPRQPPPSDSSESPAGQKADLPCHDPQDQPHSAGKPQVPTRLSSRHTMARLSHNSEPPLDRPAGLEDCTRAINNGNPVPYSDHGLDRNNNPQSELAAAHGDSESPRHFIPADYLESTEEFIRRRHDDKEKLLADQRRLKREQEEADIAARRHTGVIPTHHQFITNERFGDLLNIDDTAKRKSGLEMRPARAKFDFKAQTLKELPLQKGDVVYIYRQIDQNWYEGEHHGRVGIFPRTYIELLPPAEKAQPRKLAPVQVLEYGEAIAKFNFNGDTQVEMSFRKGERITLLRQVDENWYEGRIPGTSRQGIFPITYVDVLKRPLVKTPVDYIDLPYSSSPSRSATVSPQQPQAQQRRVTPDRSQPSLDLCSYQALYSYVPQNDDELELRDGDIVDVMEKCDDGWFVGTSRRTRQFGTFPGNYVKPLYL | binds |
| Rtn4 (protein, UniProt Q99P72 1-1162) MEDIDQSSLVSSSADSPPRPPPAFKYQFVTEPEDEEDEEDEEEEEDDEDLEELEVLERKPAAGLSAAPVPPAAAPLLDFSSDSVPPAPRGPLPAAPPTAPERQPSWERSPAASAPSLPPAAAVLPSKLPEDDEPPARPPAPAGASPLAEPAAPPSTPAAPKRRGSGSVDETLFALPAASEPVIPSSAEKIMDLKEQPGNTVSSGQEDFPSVLFETAASLPSLSPLSTVSFKEHGYLGNLSAVASTEGTIEETLNEASRELPERATNPFVNRESAEFSVLEYSEMGSSFNGSPKGESAMLVENTKEEVIVRSKDKEDLVCSAALHNPQESPATLTKVVKEDGVMSPEKTMDIFNEMKMSVVAPVREEYADFKPFEQAWEVKDTYEGSRDVLAARANMESKVDKKCFEDSLEQKGHGKDSESRNENASFPRTPELVKDGSRAYITCDSFSSATESTAANIFPVLEDHTSENKTDEKKIEERKAQIITEKTSPKTSNPFLVAIHDSEADYVTTDNLSKVTEAVVATMPEGLTPDLVQEACESELNEATGTKIAYETKVDLVQTSEAIQESIYPTAQLCPSFEEAEATPSPVLPDIVMEAPLNSLLPSTGASVAQPSASPLEVPSPVSYDGIKLEPENPPPYEEAMSVALKTSDSKEEIKEPESFNAAAQEAEAPYISIACDLIKETKLSTEPSPEFSNYSEIAKFEKSVPDHCELVDDSSPESEPVDLFSDDSIPEVPQTQEEAVMLMKESLTEVSETVTQHKHKERLSASPQEVGKPYLESFQPNLHITKDAASNEIPTLTKKETISLQMEEFNTAIYSNDDLLSSKEDKMKESETFSDSSPIEIIDEFPTFVSAKDDSPKEYTDLEVSNKSEIANVQSGANSLPCSELPCDLSFKNTYPKDEAHVSDEFSKSRSSVSKVPLLLPNVSALESQIEMGNIVKPKVLTKEAEEKLPSDTEKEDRSLTAVLSAELNKTSVVDLLYWRDIKKTGVVFGASLFLLLSLTVFSIVSVTAYIALALLSVTISFRIYKGVIQAIQKSDEGHPFRAYLESEVAISEELVQKYSNSALGHVNSTIKELRRLFLVDDLVDSLKFAVLMWVFTYVGALFNGLTLLILALISLFSIPVIYERHQAQIDHYLGLANKSVKDAMAKIQAKIPGLKRKAE | binds |
